# Measurements: PubChem BioAssay AID330 (DTP/NCI, 2004)
# The list shows only some results of the screen, not a fair sample: it is rich in T/C values a quarter to a half above the control, in often repeated tests (any T/C) and in doses without a T/C. Further doses and runs are listed elsewhere. T/C: endpoint of the treated group in % of that of the vehicle group. Some doses have a count of surviving animals in place of a T/C: the source files T/C as zero there, which appears to mark a toxic dose or a test without result, not a measured value. Some doses without a T/C left all or most animals alive at the check, yet need not have been tolerated: survival well below the control is almost never listed, so the zero probably covers shortened survival too. Survivors were counted at the toxicity check, usually on the fifth day, unless a day is given; later deaths do not show. Schedule codes are those of the source, read here as Q, the interval in days (D) or hours (H), X, the number of doses. Some entries were tested several times; the values are given in rising order. For survival time, the PubChem record calls one and a half times the control and up active, and a quarter to a half above the control has no call in these data; cut-offs in other NCI protocols can differ. Some T/C values carry the count of animals alive at the toxicity check (mostly the fifth day); without a count, all were alive then.
# Test system: P388 leukemia ip, CD2F1 mice, survival T/C
# Assay: NCI In Vivo Anticancer Drug Screen. Data for tumor model P388 Leukemia (intraperitoneal) in CD2F1 (CDF1) mice
# Conditions: T/C endpoint: median survival time, higher T/C = longer survival
# [1] = dose: 25.0 mg/kg/injection, schedule: Q01DX009 (ip), vehicle: saline
# [2] = dose: 100.0 mg/kg/injection, schedule: Q01DX009 (ip), vehicle: saline
# [3] = dose: 200.0 mg/kg/injection, schedule: Q01DX009 (ip), vehicle: saline
# [4] = dose: 30.0 mg/kg/injection, schedule: Q01DX005 (ip), vehicle: saline with Tween-80
# [5] = dose: 60.0 mg/kg/injection, schedule: Q01DX005 (ip), vehicle: saline with Tween-80
# [6] = dose: 120.0 mg/kg/injection, schedule: Q01DX005 (ip), vehicle: saline with Tween-80
# [7] = dose: 240.0 mg/kg/injection, schedule: Q01DX005 (ip), vehicle: saline with Tween-80
# [8] = dose: 240.0 mg/kg/injection, schedule: Q01DX005 (ip), vehicle: Klucel (hydroxypropylcellulose) (HPC)
smiles,measurement,setting,value
CCC[CH2][Sn]([Cl])([Cl])[CH2]CCC,T/C,"dose: 3.0 mg/kg/injection, schedule: Q01DX009 (ip), vehicle: saline with Tween-80",126 % of control [5 of 6 alive]
same,T/C,"dose: 25.0 mg/kg/injection, schedule: Q04DX003 (ip), vehicle: suspension in saline",141 % of control [5 of 6 alive]
same,survivor count,"dose: 50.0 mg/kg/injection, schedule: Q04DX003 (ip), vehicle: suspension in saline",0 of 6
same,survivor count,"dose: 100.0 mg/kg/injection, schedule: Q04DX003 (ip), vehicle: suspension in saline",0 of 6
same,T/C,"dose: 200.0 mg/kg/injection, schedule: Q04DX003 (ip), vehicle: saline",125 % of control
same,survivor count,"dose: 200.0 mg/kg/injection, schedule: Q04DX003 (ip), vehicle: suspension in saline",0 of 6
same,survivor count,"dose: 400.0 mg/kg/injection, schedule: Q04DX003 (ip), vehicle: saline",4 of 6
C=CC[N+](CCO)(CCO)CCCCCCCCCCCCCCCCCC,survivor count,"dose: 25.0 mg/kg/injection, schedule: Q01DX009 (ip), vehicle: saline with Tween-80",6 of 6
C=C1CC2(CC3CC(C2C)C3(C)C)OC1=O (stereo not drawn),survivor count,"dose: 200.0 mg/kg/injection, schedule: Q04DX002 (ip), vehicle: saline",6 of 6
Nc1ccc(N=O)c(N)n1,survivor count,"dose: 3.12 mg/kg/injection, schedule: Q01DX009 (ip), vehicle: saline",6 of 6
same,survivor count,"dose: 6.25 mg/kg/injection, schedule: Q01DX009 (ip), vehicle: saline",4 of 6
same,survivor count,[1],6 of 6
same,survivor count,"dose: 50.0 mg/kg/injection, schedule: Q01DX009 (ip), vehicle: saline with Tween-80",3 of 6
same,survivor count,"dose: 100.0 mg/kg/injection, schedule: Q01DX009 (ip), vehicle: saline with Tween-80",2 of 6
same,survivor count,[2],0 of 6
same,survivor count,"dose: 200.0 mg/kg/injection, schedule: Q01DX009 (ip), vehicle: saline with Tween-80",0 of 6
same,survivor count,[3],0 of 6
same,survivor count,"dose: 400.0 mg/kg/injection, schedule: Q01DX009 (ip), vehicle: saline with Tween-80",0 of 6
CNC(=O)Oc1[nH]c(=O)ncc1I,T/C,"dose: 200.0 mg/kg/injection, schedule: Q04DX002 (ip), vehicle: saline with Tween-80",131 % of control [5 of 6 alive]
same,survivor count,"dose: 400.0 mg/kg/injection, schedule: Q04DX002 (ip), vehicle: saline with Tween-80",0 of 6 and 3 of 6
Nc1cc2nc3ccccc3nc2cc1N,survivor count,"dose: 100.0 mg/kg/injection, schedule: Q01DX005 (ip), vehicle: saline with Tween-80",5 of 6
CC#CS(=O)C#CC,survivor count,"dose: 12.5 mg/kg/injection, schedule: Q01DX009 (ip), vehicle: distilled water + alcohol",1 of 6
same,survivor count,"dose: 25.0 mg/kg/injection, schedule: Q01DX009 (ip), vehicle: distilled water + alcohol",0 of 6
CCOc1ccc2nc3ccccc3c(N)c2c1,T/C,"dose: 15.0 mg/kg/injection, schedule: Q01DX005 (ip), vehicle: saline with Tween-80",129 % of control
same,T/C,[4],131 % of control
same,survivor count,[5],3 of 6 and 4 of 6
same,survivor count,[6],0 of 6
same,survivor count,[7],0 of 6
CCN(CC)CCNc1ccc(C)c2sc3ccccc3c(=O)c12 (tested in a mixture with another compound),T/C,"dose: 132.0 mg/kg/injection, schedule: Q04DX003 (ip), vehicle: saline",142 % of control [5 of 6 alive]
same,survivor count,[3],3 of 6
O=C1OC(c2ccc([N+](=O)[O-])cc2)=N/C1=C\c1ccc(Cl)cc1,survivor count,"dose: 6.25 mg/kg/injection, schedule: Q01DX009 (ip), vehicle: Klucel (hydroxypropylcellulose) (HPC)",6 of 6
same,survivor count,"dose: 25.0 mg/kg/injection, schedule: Q01DX009 (ip), vehicle: Klucel (hydroxypropylcellulose) (HPC)",6 of 6
same,survivor count,"dose: 50.0 mg/kg/injection, schedule: Q01DX009 (ip), vehicle: Klucel (hydroxypropylcellulose) (HPC)",6 of 6
same,survivor count,"dose: 100.0 mg/kg/injection, schedule: Q01DX009 (ip), vehicle: Klucel (hydroxypropylcellulose) (HPC)",5 of 6
same,survivor count,"dose: 200.0 mg/kg/injection, schedule: Q01DX009 (ip), vehicle: Klucel (hydroxypropylcellulose) (HPC)",6 of 6
same,survivor count,"dose: 400.0 mg/kg/injection, schedule: Q01DX009 (ip), vehicle: Klucel (hydroxypropylcellulose) (HPC)",6 of 6
N#Cc1c(-c2ccccc2)nc2sccn12,survivor count,"dose: 200.0 mg/kg/injection, schedule: Q01DX001 (ip), vehicle: Klucel (hydroxypropylcellulose) (HPC)",5 of 6
CN(C)/C=C1\C(C(C)(C)C)=CC(C(C)(C)C)=C1N=O,survivor count,[8],1 of 6
O=C(NC(Cc1ccccc1)C(=O)O)OCc1ccccc1 (stereo not drawn) (tested in a mixture with another compound),survivor count,"dose: 50.0 mg/kg/injection, schedule: Q01DX005 (ip), vehicle: Klucel (hydroxypropylcellulose) (HPC)",1 of 6
same,survivor count,"dose: 100.0 mg/kg/injection, schedule: Q01DX005 (ip), vehicle: Klucel (hydroxypropylcellulose) (HPC)",0 of 6
same,survivor count,"dose: 200.0 mg/kg/injection, schedule: Q01DX005 (ip), vehicle: Klucel (hydroxypropylcellulose) (HPC)",0 of 6
COc1ccc2c(Nc3ccc(NS(C)(=O)=O)cc3)c3ccccc3nc2c1,T/C,"dose: 0.18 mg/kg/injection, schedule: Q01DX009 (ip), vehicle: saline with Tween-80",138 % of control
same,T/C,"dose: 0.27 mg/kg/injection, schedule: Q01DX009 (ip), vehicle: saline with Tween-80",138 % of control
same,T/C,"dose: 0.4 mg/kg/injection, schedule: Q01DX009 (ip), vehicle: saline with Tween-80",138 % of control
same,T/C,"dose: 0.6 mg/kg/injection, schedule: Q01DX009 (ip), vehicle: saline with Tween-80",149 % of control
same,T/C,"dose: 1.25 mg/kg/injection, schedule: Q01DX009 (ip), vehicle: saline with Tween-80",145 % of control
same,T/C,"dose: 1.65 mg/kg/injection, schedule: Q04DX003 (ip), vehicle: saline with Tween-80",125 % of control
same,T/C,"dose: 2.5 mg/kg/injection, schedule: Q04DX003 (ip), vehicle: saline with Tween-80",128 % of control
same,T/C,"dose: 3.75 mg/kg/injection, schedule: Q04DX003 (ip), vehicle: saline with Tween-80",144 % of control
same,T/C,"dose: 8.8 mg/kg/injection, schedule: Q04DX003 (ip), vehicle: saline with Tween-80",131 % of control
same,survivor count,"dose: 37.5 mg/kg/injection, schedule: Q01DX009 (ip), vehicle: saline with Tween-80",6 of 6
same,survivor count,"dose: 75.0 mg/kg/injection, schedule: Q01DX009 (ip), vehicle: saline with Tween-80",6 of 6
CC(C#N)(C#N)N=Nc1ccc(Br)cc1,survivor count,"dose: 200.0 mg/kg/injection, schedule: Q01DX005 (ip), vehicle: saline with Tween-80",3 of 6
CCCCCCC(O)Cc1cc(-c2ccccc2)nc(=O)[nH]1 (stereo not drawn),survivor count,[4],6 of 6
same,survivor count,[5],6 of 6
same,survivor count,[6],6 of 6
Oc1ccc2c(c1)OC1(c3ccccc3)CC2N=CN1 (stereo not drawn),survivor count,"dose: 200.0 mg/kg/injection, schedule: Q01DX009 (ip), vehicle: suspension in saline",1 of 6
Cc1cc[n+](C2=C(Nc3cccc(C(F)(F)F)c3)C(=O)c3ccccc3C2=O)cc1,survivor count,[5],0 of 6
same,survivor count,[6],0 of 6
same,survivor count,[7],0 of 6
C=Cn1cc[n+](CC(=O)OC2CCC3C4CCC5=CC(=O)CCC5(C)C4CCC23C)c1 (stereo not drawn),survivor count,"dose: 15.0 mg/kg/injection, schedule: Q01DX005 (ip), vehicle: Klucel (hydroxypropylcellulose) (HPC)",2 of 6
same,survivor count,"dose: 60.0 mg/kg/injection, schedule: Q01DX005 (ip), vehicle: Klucel (hydroxypropylcellulose) (HPC)",0 of 6
same,survivor count,"dose: 120.0 mg/kg/injection, schedule: Q01DX005 (ip), vehicle: Klucel (hydroxypropylcellulose) (HPC)",0 of 6
same,survivor count,[8],0 of 6
Cc1ccc(S(=O)(=O)c2c(O)c3ccccc3c3nc4ccccc4nc23)cc1,survivor count,[1],6 of 6
same,survivor count,[2],5 of 6
O=C(O)/C=C/C(=O)N1Cc2cc3ccccc3nc2C1,survivor count,"dose: 4.0 mg/kg/injection, schedule: Q01DX009 (ip), vehicle: saline with Tween-80",6 of 6
same,T/C,"dose: 6.25 mg/kg/injection, schedule: Q01DX009 (ip), vehicle: saline with Tween-80",131 % of control
